In the supplement of paper PMC10849652:
The list shows a part of the results.

Protein sequences, listed by entry. Tags and fused reporters are not part of them. Lines headed by an entry give the natural chain unless they say otherwise; changes in a name come on top.
UniProt O95997: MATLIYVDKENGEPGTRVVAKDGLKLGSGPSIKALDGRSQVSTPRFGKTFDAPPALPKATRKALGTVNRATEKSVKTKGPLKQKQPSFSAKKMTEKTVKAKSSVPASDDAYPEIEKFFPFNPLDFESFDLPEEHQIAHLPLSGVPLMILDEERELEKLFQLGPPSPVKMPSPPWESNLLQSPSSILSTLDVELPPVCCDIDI
UniProt P18433: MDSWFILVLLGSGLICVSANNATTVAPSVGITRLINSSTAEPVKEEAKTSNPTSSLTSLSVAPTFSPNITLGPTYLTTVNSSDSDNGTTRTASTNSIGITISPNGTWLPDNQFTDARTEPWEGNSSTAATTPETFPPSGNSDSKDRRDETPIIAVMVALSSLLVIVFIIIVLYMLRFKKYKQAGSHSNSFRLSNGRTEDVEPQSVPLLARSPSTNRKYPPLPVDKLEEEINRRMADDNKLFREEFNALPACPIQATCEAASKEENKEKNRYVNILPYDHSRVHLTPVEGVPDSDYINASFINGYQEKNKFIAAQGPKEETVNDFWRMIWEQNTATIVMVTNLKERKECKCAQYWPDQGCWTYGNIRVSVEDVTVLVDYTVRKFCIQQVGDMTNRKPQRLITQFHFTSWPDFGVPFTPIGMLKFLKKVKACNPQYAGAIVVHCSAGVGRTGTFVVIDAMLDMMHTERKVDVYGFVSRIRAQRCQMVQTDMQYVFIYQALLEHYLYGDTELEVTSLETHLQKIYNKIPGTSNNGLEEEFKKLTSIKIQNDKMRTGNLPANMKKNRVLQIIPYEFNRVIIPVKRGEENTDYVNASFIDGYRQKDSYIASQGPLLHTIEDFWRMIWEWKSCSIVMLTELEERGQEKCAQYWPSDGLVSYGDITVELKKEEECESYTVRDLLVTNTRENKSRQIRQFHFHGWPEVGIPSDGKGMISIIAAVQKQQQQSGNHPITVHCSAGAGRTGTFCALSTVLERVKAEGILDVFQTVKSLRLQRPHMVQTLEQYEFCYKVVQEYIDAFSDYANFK
UniProt Q92530: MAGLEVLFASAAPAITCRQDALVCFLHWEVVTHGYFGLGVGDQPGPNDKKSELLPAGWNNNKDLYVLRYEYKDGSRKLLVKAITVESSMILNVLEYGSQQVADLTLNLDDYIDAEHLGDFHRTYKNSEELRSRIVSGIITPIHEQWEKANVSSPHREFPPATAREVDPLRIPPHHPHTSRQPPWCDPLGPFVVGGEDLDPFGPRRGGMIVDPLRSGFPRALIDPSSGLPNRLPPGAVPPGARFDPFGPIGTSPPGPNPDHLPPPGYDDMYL
UniProt P25786: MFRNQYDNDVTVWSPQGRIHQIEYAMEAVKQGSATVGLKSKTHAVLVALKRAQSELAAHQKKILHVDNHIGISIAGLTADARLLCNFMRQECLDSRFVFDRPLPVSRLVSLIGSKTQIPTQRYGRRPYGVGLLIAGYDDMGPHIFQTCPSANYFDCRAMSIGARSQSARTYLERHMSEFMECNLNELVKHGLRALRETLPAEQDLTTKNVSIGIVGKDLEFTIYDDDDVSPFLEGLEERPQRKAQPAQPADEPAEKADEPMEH
UniProt Q15257: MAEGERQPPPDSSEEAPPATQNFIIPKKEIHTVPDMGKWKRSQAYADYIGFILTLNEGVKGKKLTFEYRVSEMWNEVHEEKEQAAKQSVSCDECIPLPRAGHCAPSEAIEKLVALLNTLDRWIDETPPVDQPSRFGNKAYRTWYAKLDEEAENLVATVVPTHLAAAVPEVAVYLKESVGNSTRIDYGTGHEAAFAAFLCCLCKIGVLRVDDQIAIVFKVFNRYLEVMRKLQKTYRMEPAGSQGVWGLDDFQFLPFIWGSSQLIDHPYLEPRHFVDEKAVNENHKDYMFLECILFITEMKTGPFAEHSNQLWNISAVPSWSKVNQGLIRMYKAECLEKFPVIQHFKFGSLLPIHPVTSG
UniProt P62333, whole entry, looked up: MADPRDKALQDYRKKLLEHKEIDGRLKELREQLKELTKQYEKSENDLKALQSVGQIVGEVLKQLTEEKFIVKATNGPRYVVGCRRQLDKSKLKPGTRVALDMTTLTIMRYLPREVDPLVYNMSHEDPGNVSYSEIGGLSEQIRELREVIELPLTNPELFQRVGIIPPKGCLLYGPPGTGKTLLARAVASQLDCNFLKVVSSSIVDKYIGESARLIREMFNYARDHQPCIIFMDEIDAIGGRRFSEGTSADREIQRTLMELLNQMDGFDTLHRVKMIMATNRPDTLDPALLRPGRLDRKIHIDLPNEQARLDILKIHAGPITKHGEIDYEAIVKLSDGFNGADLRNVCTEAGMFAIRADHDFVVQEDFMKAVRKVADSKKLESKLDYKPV
UniProt P78330: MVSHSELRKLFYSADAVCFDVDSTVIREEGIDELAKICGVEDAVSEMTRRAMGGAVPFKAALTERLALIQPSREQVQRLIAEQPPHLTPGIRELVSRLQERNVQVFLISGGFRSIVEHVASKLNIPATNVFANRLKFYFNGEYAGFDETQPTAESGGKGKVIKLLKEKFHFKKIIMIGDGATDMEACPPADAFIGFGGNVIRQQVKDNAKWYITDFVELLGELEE
UniProt P28072: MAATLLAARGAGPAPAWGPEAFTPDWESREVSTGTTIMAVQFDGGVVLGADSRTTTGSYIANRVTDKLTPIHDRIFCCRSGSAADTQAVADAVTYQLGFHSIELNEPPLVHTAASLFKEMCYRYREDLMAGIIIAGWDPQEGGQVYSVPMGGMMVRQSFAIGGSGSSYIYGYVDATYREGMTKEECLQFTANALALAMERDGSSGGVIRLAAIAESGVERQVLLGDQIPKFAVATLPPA
UniProt Q15008: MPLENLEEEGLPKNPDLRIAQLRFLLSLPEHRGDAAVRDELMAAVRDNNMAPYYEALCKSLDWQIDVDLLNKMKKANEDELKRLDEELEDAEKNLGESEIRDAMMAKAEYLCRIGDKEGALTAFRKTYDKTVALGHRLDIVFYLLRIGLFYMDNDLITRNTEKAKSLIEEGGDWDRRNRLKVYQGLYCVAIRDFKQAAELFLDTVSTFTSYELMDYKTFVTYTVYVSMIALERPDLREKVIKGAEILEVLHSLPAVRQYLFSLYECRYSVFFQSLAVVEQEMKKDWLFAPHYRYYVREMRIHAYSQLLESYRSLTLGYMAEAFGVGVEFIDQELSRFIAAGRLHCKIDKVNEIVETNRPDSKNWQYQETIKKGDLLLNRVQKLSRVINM
UniProt P40306: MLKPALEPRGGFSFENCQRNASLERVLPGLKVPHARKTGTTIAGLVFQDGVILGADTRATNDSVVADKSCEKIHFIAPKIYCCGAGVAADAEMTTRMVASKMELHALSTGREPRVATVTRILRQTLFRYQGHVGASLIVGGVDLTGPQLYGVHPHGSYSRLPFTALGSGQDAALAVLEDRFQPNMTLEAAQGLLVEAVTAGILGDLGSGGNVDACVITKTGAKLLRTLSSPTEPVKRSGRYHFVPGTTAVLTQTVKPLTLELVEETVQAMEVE
UniProt Q9Y6M0: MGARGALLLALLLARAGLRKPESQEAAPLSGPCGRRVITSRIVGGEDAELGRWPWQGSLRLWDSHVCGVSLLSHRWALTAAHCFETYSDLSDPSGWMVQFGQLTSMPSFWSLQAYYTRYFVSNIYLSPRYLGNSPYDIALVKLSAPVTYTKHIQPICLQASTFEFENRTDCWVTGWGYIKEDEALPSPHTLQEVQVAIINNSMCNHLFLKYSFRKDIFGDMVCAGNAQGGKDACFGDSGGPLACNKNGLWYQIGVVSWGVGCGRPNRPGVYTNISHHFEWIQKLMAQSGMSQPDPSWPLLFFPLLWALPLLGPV
UniProt Q12913: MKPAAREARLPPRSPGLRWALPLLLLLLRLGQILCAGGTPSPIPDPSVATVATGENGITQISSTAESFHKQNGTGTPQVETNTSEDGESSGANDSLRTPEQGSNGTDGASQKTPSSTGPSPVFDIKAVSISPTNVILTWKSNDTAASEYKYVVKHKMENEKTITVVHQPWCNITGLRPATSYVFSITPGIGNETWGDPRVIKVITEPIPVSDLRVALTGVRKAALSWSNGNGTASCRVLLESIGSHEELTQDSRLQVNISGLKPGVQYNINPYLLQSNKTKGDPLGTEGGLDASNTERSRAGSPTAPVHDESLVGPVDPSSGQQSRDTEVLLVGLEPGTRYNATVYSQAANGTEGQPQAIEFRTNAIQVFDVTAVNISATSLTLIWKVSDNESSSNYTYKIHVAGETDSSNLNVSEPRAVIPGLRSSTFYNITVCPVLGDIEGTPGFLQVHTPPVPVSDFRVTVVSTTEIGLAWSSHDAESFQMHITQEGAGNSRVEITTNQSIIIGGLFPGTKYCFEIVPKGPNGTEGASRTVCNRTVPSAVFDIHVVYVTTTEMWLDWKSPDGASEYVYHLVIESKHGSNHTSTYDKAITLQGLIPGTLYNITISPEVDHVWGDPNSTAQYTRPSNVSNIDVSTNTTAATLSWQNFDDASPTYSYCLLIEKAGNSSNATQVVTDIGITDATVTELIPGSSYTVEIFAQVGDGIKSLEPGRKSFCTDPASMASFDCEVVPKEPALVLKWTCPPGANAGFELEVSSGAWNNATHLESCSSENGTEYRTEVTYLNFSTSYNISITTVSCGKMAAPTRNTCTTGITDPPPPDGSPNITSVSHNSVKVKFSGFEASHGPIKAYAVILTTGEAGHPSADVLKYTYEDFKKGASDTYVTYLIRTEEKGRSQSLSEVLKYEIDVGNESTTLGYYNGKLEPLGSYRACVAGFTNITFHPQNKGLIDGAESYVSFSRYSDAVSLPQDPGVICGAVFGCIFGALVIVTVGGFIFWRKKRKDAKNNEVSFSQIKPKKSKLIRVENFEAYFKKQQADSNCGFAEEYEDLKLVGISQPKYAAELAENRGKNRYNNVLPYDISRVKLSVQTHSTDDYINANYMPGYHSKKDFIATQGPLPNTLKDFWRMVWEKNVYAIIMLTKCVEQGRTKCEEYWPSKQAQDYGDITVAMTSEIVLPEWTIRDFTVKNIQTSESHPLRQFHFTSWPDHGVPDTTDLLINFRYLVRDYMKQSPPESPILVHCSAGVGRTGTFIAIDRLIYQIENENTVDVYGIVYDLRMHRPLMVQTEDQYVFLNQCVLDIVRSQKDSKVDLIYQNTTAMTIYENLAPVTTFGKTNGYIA
UniProt Q9Y3E5: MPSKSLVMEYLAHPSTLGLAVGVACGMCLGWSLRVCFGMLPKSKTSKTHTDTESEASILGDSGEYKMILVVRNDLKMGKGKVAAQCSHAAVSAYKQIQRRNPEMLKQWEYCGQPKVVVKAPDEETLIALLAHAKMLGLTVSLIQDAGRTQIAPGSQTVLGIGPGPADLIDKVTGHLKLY
UniProt Q05209: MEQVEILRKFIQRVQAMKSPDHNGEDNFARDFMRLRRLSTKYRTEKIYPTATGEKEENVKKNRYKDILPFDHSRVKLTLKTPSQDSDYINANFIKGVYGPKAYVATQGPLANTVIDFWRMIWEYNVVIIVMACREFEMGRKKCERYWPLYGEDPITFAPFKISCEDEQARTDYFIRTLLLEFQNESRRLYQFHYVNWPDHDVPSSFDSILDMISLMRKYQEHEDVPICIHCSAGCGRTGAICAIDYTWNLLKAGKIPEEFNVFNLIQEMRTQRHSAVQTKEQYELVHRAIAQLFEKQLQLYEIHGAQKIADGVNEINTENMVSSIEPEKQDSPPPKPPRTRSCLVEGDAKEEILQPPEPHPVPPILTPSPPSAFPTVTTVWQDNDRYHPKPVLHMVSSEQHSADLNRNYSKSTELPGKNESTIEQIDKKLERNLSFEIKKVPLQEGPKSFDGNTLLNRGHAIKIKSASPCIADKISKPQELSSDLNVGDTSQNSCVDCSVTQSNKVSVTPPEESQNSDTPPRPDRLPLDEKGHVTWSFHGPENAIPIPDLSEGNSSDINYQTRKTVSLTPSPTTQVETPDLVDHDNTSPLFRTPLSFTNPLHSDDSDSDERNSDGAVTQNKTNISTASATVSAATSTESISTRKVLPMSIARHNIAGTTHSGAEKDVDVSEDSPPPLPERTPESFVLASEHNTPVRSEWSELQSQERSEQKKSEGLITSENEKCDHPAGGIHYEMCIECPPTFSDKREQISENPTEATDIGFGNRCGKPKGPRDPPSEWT
UniProt Q9Y606: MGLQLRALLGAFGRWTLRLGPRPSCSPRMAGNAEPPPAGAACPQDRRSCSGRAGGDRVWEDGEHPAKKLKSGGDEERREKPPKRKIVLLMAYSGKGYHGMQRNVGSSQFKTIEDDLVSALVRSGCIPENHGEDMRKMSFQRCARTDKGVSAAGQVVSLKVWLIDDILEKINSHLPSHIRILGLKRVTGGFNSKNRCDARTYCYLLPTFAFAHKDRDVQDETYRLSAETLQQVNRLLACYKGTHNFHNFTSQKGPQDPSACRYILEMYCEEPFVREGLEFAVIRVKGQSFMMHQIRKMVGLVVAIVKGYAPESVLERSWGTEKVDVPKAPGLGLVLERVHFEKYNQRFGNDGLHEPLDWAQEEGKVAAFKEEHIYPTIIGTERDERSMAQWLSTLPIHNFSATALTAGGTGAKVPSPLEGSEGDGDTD

Columns and labels:
Assay in all cases: log2 fold change, soluble protein after heating vs DMSO (PISA); higher = thermal stabilisation; K562 lysate, 10 uM; active = over 0.2 and 3.5 SD of the protein, either way, in both replicates (recomputed)
ibrutinib = compound: C=CC(=O)N1CCC[C@@H](n2nc(-c3ccc(Oc4ccccc4)cc3)c3c(N)ncnc32)C1 [ibrutinib]
Procedure, shortened: (§1)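 Thermal stability, expressed as log-two fold change relative to solvent controls, is given from duplicates. Crude K562 extract in PBS pH 7.4 with 1 mM MgCl2, at 1 mg/mL protein, was treated with 10 μM compound for 30 min and heated in aliquots for 3 min across 48°C-58°C. After pooling, adjustment to 0.5% NP-40 at 4°C and centrifugation at 21,000xg for 90 min, supernatant protein was measured by TMTpro 16plex LC-MS/MS with channel sums equalised.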

[1] = compound: CC(=O)c1cnc2ccc(-c3cc(Cl)c(O)c(Cl)c3)nc2c1N[C@H]1CC[C@H](CN(C)C)CC1
Procedure, shortened: as §1

ralimetinib = compound: CC(C)(C)Cn1c(N)nc2ccc(-c3[nH]c(C(C)(C)C)nc3-c3ccc(F)cc3)nc21 [ralimetinib]
Procedure, shortened: as §1

[2] = compound: CC(C)(O)CC(=O)NCCn1ccc2ncnc(Nc3ccc(Oc4cccc(C(F)(F)F)c4)c(Cl)c3)c21
Procedure, shortened: as §1

[3] = compound: CC(C)C1=C2N=C(C=C(N2N=C1)NCC3=CC=CC=C3)NCCCCCCN
Procedure, shortened: as §1

[4] = compound: CC1=C(C(CC(=O)N1)C2=CC=C(C=C2)C(F)(F)F)C(=O)NC3=C(C=C4C(=C3)C=NN4)F
Procedure, shortened: as §1

[5] = compound: CC1=C(C2=C(C=C1)C(=O)C3=CC=CC=C3N2CCCN)C
Procedure, shortened: as §1

[6] = compound: CC1=C(C=C(C=C1)NC(=O)C2=CC(=CC=C2)C(C)(C)C#N)NC3=CC4=C(C=C3)N=CN(C4=O)C
Procedure, shortened: as §1

[7] = compound: CC1=C(C=C(C=C1)NC(=O)C2=CC(=CC=C2)N(C)C)NC(=O)C3=CC=C(C=C3)O
Procedure, shortened: as §1

[8] = compound: CC1=CC=C(C=C1)SC2=C3C=C(SC3=CN=C2)C(=O)N
Procedure, shortened: as §1

Measured: log2 fold change

PTTG1 (UniProt O95997)
inactive: ibrutinib 0.021 | [1] 0.022 | ralimetinib -0.02 | [2] -0.063 | [3] 0.017 | [4] -0.039 | [5] -0.006 | [6] 0.099 | [7] -0.038 | [8] 0.059

PTP4A2 (UniProt Q12974)
inactive: ibrutinib 0.01 | [1] 0.033 | ralimetinib 0.061 | [2] 0.019 | [3] -0.012 | [4] 0.018 | [5] 0.004 | [6] -0.002 | [7] -0.036 | [8] -0.015

PTPRA (UniProt P18433)
inactive: ibrutinib 0.116 | [1] 0.013 | ralimetinib -0.016 | [2] -0.011 | [3] -0.006 | [4] 0.017 | [5] -0.035 | [6] -0.022 | [7] 0.018 | [8] 0.002

PUM3 (UniProt Q15397)
inactive: ibrutinib 0.023 | [1] -0.003 | ralimetinib 0.065 | [2] -0.032 | [3] -0.057 | [4] 0.03 | [5] -0.043 | [6] -0.031 | [7] -0.131 | [8] 0.039

PSMF1 (UniProt Q92530)
inactive: ibrutinib 0.002 | [1] -0.013 | ralimetinib -0.037 | [2] -0.074 | [3] 0.002 | [4] 0.03 | [5] 0.011 | [6] 0.107 | [7] -0.034 | [8] -0.029

PSMA1 isoform 2 (UniProt P25786)
inactive: ibrutinib -0.025 | [1] 0.001 | ralimetinib -0.008 | [2] 0.016 | [3] 0.005 | [4] -0.014 | [5] 0.014 | [6] 0.003 | [7] 0.004 | [8] -0.006

PTDSS1 (UniProt P48651)
inactive: ibrutinib -0.072 | [1] 0.103 | ralimetinib 0.017 | [2] -0.171 | [3] -0.021 | [4] -0.064 | [5] -0.007 | [6] 0.033 | [7] -0.026 | [8] 0.014

PTPA isoform 2 (UniProt Q15257)
inactive: ibrutinib 0.027 | [1] -0.004 | ralimetinib 0.009 | [2] -0.042 | [3] 0.152 | [4] -0.004 | [5] -0.007 | [6] -0.016 | [7] -0.025 | [8] -0.003

PSMC1 (UniProt P62191)
inactive: ibrutinib -0.013 | [1] -0.008 | ralimetinib 0.016 | [2] 0.01 | [3] -0.01 | [4] 0.002 | [5] 0.014 | [6] -0.001 | [7] 0.004 | [8] 0.012

Reprinted at random: two entries already listed.
PTP4A2 (UniProt Q12974)
inactive: ibrutinib 0.01 | [1] 0.033 | ralimetinib 0.061 | [2] 0.019 | [3] -0.012 | [4] 0.018 | [5] 0.004 | [6] -0.002 | [7] -0.036 | [8] -0.015

PTPRA (UniProt P18433)
inactive: ibrutinib 0.116 | [1] 0.013 | ralimetinib -0.016 | [2] -0.011 | [3] -0.006 | [4] 0.017 | [5] -0.035 | [6] -0.022 | [7] 0.018 | [8] 0.002

(continued)

PSMC6 (UniProt P62333)
inactive: ibrutinib -0.013 | [1] 0.01 | ralimetinib 0.004 | [2] 0.055 | [3] -0.002 | [4] -0.006 | [5] 0.014 | [6] -0.01 | [7] 0 | [8] 0.03

PSPH (UniProt P78330)
inactive: ibrutinib 0.026 | [1] 0.017 | ralimetinib -0.005 | [2] -0.048 | [3] -0.021 | [4] -0.015 | [5] 0.002 | [6] 0.034 | [7] -0.007 | [8] -0.005

PSMB4 (UniProt P28070)
inactive: ibrutinib -0.018 | [1] -0.01 | ralimetinib 0.011 | [2] -0.035 | [3] -0.029 | [4] -0.031 | [5] -0.016 | [6] 0.024 | [7] -0.022 | [8] -0.003

PSMB6 (UniProt P28072)
inactive: ibrutinib -0.02 | [1] -0.017 | ralimetinib -0.012 | [2] -0.034 | [3] -0.027 | [4] -0.022 | [5] -0.019 | [6] -0.013 | [7] -0.021 | [8] -0.003

PTK2 isoform 2 (UniProt Q05397)
inactive: ibrutinib 0.173 | [1] -0.047 | [3] -0.002 | [5] -0.138 | [8] -0.053

PRPS1 (UniProt B1ALA9)
inactive: ibrutinib -0.01 | [1] -0.015 | ralimetinib -0.017 | [2] -0.001 | [3] -0.011 | [4] -0.01 | [5] 0.04 | [6] 0 | [7] -0.022 | [8] -0.008

PSMC5 (UniProt P62195)
inactive: ibrutinib -0.005 | [1] 0.043 | ralimetinib 0.009 | [2] 0 | [3] 0.021 | [4] 0.015 | [5] -0.03 | [6] 0 | [7] -0.02 | [8] 0.038

PSMD6 (UniProt Q15008)
inactive: ibrutinib -0.244 | [1] -0.005 | [4] -0.086 | [6] 0.212 | [8] -0.095

PSMA7 (UniProt H0Y586)
inactive: ibrutinib 0.095 | [1] -0.015 | [3] -0.512 | [4] -0.199 | [6] 0.124 | [8] 0.125

PSMB10 (UniProt P40306)
inactive: ibrutinib 0.09 | [1] 0.017 | ralimetinib -0.104 | [2] 0.057 | [5] 0 | [6] 0.032 | [7] 0.024 | [8] 0.069

PRPF8 (UniProt Q6P2Q9)
inactive: ibrutinib -0.017 | [1] -0.003 | ralimetinib 0.019 | [2] -0.005 | [3] -0.024 | [4] -0.011 | [5] 0.006 | [6] 0 | [7] 0.008 | [8] 0.012

PRSS21 (UniProt Q9Y6M0)
inactive: ibrutinib -0.025 | [1] -0.029 | ralimetinib 0.04 | [2] -0.034 | [3] 0.002 | [5] -0.013 | [6] 0.012 | [7] 0.025 | [8] -0.025

PTPRJ (UniProt Q12913)
inactive: ibrutinib 0.079 | [1] 0 | ralimetinib 0.144 | [2] 0.153 | [3] -0.03 | [4] 0.069 | [6] -0.084 | [7] -0.028 | [8] -0.09

PTPRB isoform 3 (UniProt P23467)
inactive: ibrutinib 0.129 | [1] -0.043 | [4] -0.095 | [5] 0.011 | [8] 0.194

PRUNE2 isoform 3 (UniProt Q8WUY3)
inactive: ibrutinib -0.015 | [1] -0.093 | ralimetinib 0.018 | [2] -0.093 | [3] -0.005 | [4] 0.019 | [5] -0.052 | [6] -0.033 | [7] 0.028 | [8] -0.05

PSMD6 isoform 4 (UniProt Q15008)
inactive: ibrutinib 0.039 | [1] -0.001 | ralimetinib -0.016 | [2] -0.031 | [3] -0.01 | [4] -0.004 | [5] 0.002 | [6] -0.002 | [7] 0.016 | [8] 0.012

PRTFDC1 (UniProt Q9NRG1)
inactive: ibrutinib -0.019 | [1] -0.008 | ralimetinib -0.003 | [2] 0.051 | [3] 0.005 | [4] -0.022 | [5] 0.002 | [6] 0.009 | [7] -0.008 | [8] -0.007

PTRH2 (UniProt Q9Y3E5)
inactive: ibrutinib 0.03 | [1] 0.034 | ralimetinib -0.002 | [2] -0.05 | [3] 0.03 | [4] -0.014 | [5] -0.064 | [6] 0.019 | [7] -0.018 | [8] -0.004

PTPN12 (UniProt Q05209)
inactive: ibrutinib 0.006 | [1] 0.003 | ralimetinib 0.036 | [2] -0.024 | [3] 0.003 | [4] 0.008 | [5] -0.032 | [6] 0.001 | [7] 0.026 | [8] -0.018

PUS1 (UniProt Q9Y606)
inactive: ibrutinib 0.006 | [1] 0.004 | ralimetinib 0.013 | [2] -0.006 | [3] 0.005 | [4] -0.009 | [5] -0.032 | [6] 0.028 | [7] 0.031 | [8] -0.021

PSMA6 (UniProt P60900)
inactive: ibrutinib 0.02 | [1] -0.008 | ralimetinib 0.011 | [2] -0.012 | [3] -0.004 | [4] -0.026 | [5] 0.031 | [6] 0.023 | [7] -0.023 | [8] -0.003

PSMD5 (UniProt Q16401)
inactive: ibrutinib -0.024 | [1] 0.008 | ralimetinib -0.011 | [2] -0.001 | [3] 0.002 | [4] -0.023 | [5] -0.002 | [6] 0.002 | [7] -0.012 | [8] -0.002
